# Some of the results follow.
# Key:
# Assay in all cases: glycan array binding signal (z-score within array); higher = stronger binding
# Details in all cases: glycan notation: IUPAC condensed, linker removed
# [1] = target: Gal(b1-4)GlcNAc(b1-3)Gal(b1-4)[Fuc(a1-3)]GlcNAc(b1-3)Gal(b1-4)[Fuc(a1-3)]GlcNAc
# Outline: (§1)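 The Consortium for Functional Glycomics database supplied 3228 glycan arrays, of which those lacking an available protein sequence were dropped. The binding signal, a within-array Z-score, was averaged across arrays of the same protein sequence and across linkers. Negative scores can be read as non-binding.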
# [2] = target: Gal(b1-4)GlcNAc(b1-3)GalNAc
# Outline: as §1
# [3] = target: Gal(b1-4)GlcNAc(b1-3)[Fuc(a1-3)GlcNAc(b1-6)]Gal(b1-4)Glc
# Outline: as §1
# [4] = target: Gal(b1-4)GlcNAc(b1-3)[Gal(b1-4)GlcNAc(b1-6)]Gal(b1-4)GlcNAc
# Outline: as §1
# [5] = target: Gal(b1-4)GlcNAc(b1-3)[Gal(b1-4)GlcNAc(b1-6)]GalNAc
# Outline: as §1
# [6] = target: Gal(b1-4)GlcNAc(b1-3)[GlcNAc(b1-6)]Gal(b1-4)GlcNAc
# Outline: as §1
# [7] = target: Gal(b1-4)GlcNAc(b1-6)Gal(b1-4)GlcNAc
# Outline: as §1
# [8] = target: Gal(b1-4)GlcNAc(b1-6)Gal(b1-4)GlcNAc(b1-6)GalNAc
# Outline: as §1
# [9] = target: Gal(b1-4)GlcNAc(b1-6)GalNAc
# Outline: as §1
# [10] = target: Gal(b1-4)GlcNAc(b1-6)[Gal(b1-3)]GalNAc
# Outline: as §1
# [11] = target: Gal(b1-4)GlcNAc(b1-6)[Gal(b1-4)GlcNAc(b1-3)]GalNAc
# Outline: as §1
# Gal(b1-4)GlcNAc6P = target: Gal(b1-4)GlcNAc6P
# Outline: as §1
# Gal(b1-6)Gal = target: Gal(b1-6)Gal
# Outline: as §1
# Gal3S(b1-3)GalNAc = target: Gal3S(b1-3)GalNAc
# Outline: as §1
# Gal3S(b1-3)GlcNAc = target: Gal3S(b1-3)GlcNAc
# Outline: as §1
# [12] = target: Gal3S(b1-3)[Fuc(a1-4)]GlcNAc
# Outline: as §1
# Gal3S(b1-4)Glc = target: Gal3S(b1-4)Glc
# Outline: as §1
# Gal3S(b1-4)Glc6S = target: Gal3S(b1-4)Glc6S
# Outline: as §1
# Gal3S(b1-4)GlcNAc = target: Gal3S(b1-4)GlcNAc
# Outline: as §1
# Gal3S(b1-4)GlcNAc6S = target: Gal3S(b1-4)GlcNAc6S
# Outline: as §1
# [13] = target: Gal3S(b1-4)[Fuc(a1-3)]Glc6S
# Outline: as §1
# [14] = target: Gal3S(b1-4)[Fuc(a1-3)]GlcNAc
# Outline: as §1
# [15] = target: Gal3S(b1-4)[Fuc(a1-3)]GlcNAc6S
# Outline: as §1
binder,measurement,setting,value
"Endo180d1-D4 (Homo sapiens), Q9UBG0 (protein) MGPGRPAPAPWPRHLLRCVLLLGCLHLGRPGAPGDAALPEPNVFLIFSHGLQGCLEAQGGQVRVTPACNTSLPAQRWKWVSRNRLFNLGTMQCLGTGWPGTNTTASLGMYECDREALNLRWHCRTLGDQLSLLLGARTSNISKPGTLERGDQTRSGQWRIYGSEEDLCALPYHEVYTIQGNSHGKPCTIPFKYDNQWFHGCTSTGREDGHLWCATTQDYGKDERWGFCPIKSNDCETFWDKDQLTDSCYQFNFQSTLSWREAWASCEQQGADLLSITEIHEQTYINGLLTGYSSTLWIGLNDLDTSGGWQWSDNSPLKYLNWESDQPDNPSEENCGVIRTESSGGWQNRDCSIALPYVCKKKPNATAEPTPPDRWANVKVECEPSWQPFQGHCYRLQAEKRSWQESKKACLRGGGDLVSIHSMAELEFITKQIKQEVEELWIGLNDLKLQMNFEWSDGSLVSFTHWHPFEPNNFRDSLEDCVTIWGPEGRWNDSPCNQSLPSICKKAGQLSQGAAEEDHGCRKGWTWHSPSCYWLGEDQVTYSEARRLCTDHGSQLVTITNRFEQAFVSSLIYNWEGEYFWTALQDLNSTGSFFWLSGDEVMYTHWNRDQPGYSRGGCVALATGSAMGLWEVKNCTSFRARYICRQSLGTPVTPELPGPDPTPSLTGSCPQGWASDTKLRYCYKVFSSERLQDKKSWVQAQGACQELGAQLLSLASYEEEHFVANMLNKIFGESEPEIHEQHWFWIGLNRRDPRGGQSWRWSDGVGFSYHNFDRSRHDDDDIRGCAVLDLASLQWVAMQCDTQLDWICKIPRGTDVREPDDSPQGRREWLRFQEAEYKFFEHHSTWAQAQRICTWFQAELTSVHSQAELDFLSHNLQKFSRAQEQHWWIGLHTSESDGRFRWTDGSIINFISWAPGKPRPVGKDKKCVYMTASREDWGDQRCLTALPYICKRSNVTKETQPPDLPTTALGGCPSDWIQFLNKCFQVQGQEPQSRVKWSEAQFSCEQQEAQLVTITNPLEQAFITASLPNVTFDLWIGLHASQRDFQWVEQEPLMYANWAPGEPSGPSPAPSGNKPTSCAVVLHSPSAHFTGRWDDRSCTEETHGFICQKGTDPSLSPSPAALPPAPGTELSYLNGTFRLLQKPLRWHDALLLCESHNASLAYVPDPYTQAFLTQAARGLRTPLWIGLAGEEGSRRYSWVSEEPLNYVGWQDGEPQQPGGCTYVDVDGAWRTTSCDTKLQGAVCGVSSGPPPPRRISYHGSCPQGLADSAWIPFREHCYSFHMELLLGHKEARQRCQRAGGAVLSILDEMENVFVWEHLQSYEGQSRGAWLGMNFNPKGGTLVWQDNTAVNYSNWGPPGLGPSMLSHNSCYWIQSNSGLWRPGACTNITMGVVCKLPRAEQSSFSPSALPENPAALVVVLMAVLLLLALLTAALILYRRRQSIERGAFEGARYSRSSSSPTEATEKNILVSDMEMNEQQE",glycan array binding signal (z-score),[1],-0.047
same,glycan array binding signal (z-score),[2],0.141
same,glycan array binding signal (z-score),[3],-0.533
same,glycan array binding signal (z-score),[4],-0.503
same,glycan array binding signal (z-score),[5],-0.215
same,glycan array binding signal (z-score),[6],-0.226
same,glycan array binding signal (z-score),[7],-1.39
same,glycan array binding signal (z-score),[8],-0.163
same,glycan array binding signal (z-score),[9],0.977
same,glycan array binding signal (z-score),[10],-0.915
same,glycan array binding signal (z-score),[11],-0.295
same,glycan array binding signal (z-score),Gal(b1-4)GlcNAc6P,0.318
same,glycan array binding signal (z-score),Gal(b1-6)Gal,-0.36
same,glycan array binding signal (z-score),Gal3S(b1-3)GalNAc,0.452
same,glycan array binding signal (z-score),Gal3S(b1-3)GlcNAc,-0.139
same,glycan array binding signal (z-score),[12],-0.496
same,glycan array binding signal (z-score),Gal3S(b1-4)Glc,0.341
same,glycan array binding signal (z-score),Gal3S(b1-4)Glc6S,0.494
same,glycan array binding signal (z-score),Gal3S(b1-4)GlcNAc,-0.523
same,glycan array binding signal (z-score),Gal3S(b1-4)GlcNAc6S,1.88
same,glycan array binding signal (z-score),[13],0.973
same,glycan array binding signal (z-score),[14],0.358
same,glycan array binding signal (z-score),[15],-0.002

# Reference: the supplement of paper PMC8728848
